In paper PMC5472812 one finds binding data, which are given here for one substance.

Protein sequences, listed by entry. Tags and fused reporters are not part of them. Lines headed by an entry give the natural chain unless they say otherwise; changes in a name come on top.
UniProt Q9A749: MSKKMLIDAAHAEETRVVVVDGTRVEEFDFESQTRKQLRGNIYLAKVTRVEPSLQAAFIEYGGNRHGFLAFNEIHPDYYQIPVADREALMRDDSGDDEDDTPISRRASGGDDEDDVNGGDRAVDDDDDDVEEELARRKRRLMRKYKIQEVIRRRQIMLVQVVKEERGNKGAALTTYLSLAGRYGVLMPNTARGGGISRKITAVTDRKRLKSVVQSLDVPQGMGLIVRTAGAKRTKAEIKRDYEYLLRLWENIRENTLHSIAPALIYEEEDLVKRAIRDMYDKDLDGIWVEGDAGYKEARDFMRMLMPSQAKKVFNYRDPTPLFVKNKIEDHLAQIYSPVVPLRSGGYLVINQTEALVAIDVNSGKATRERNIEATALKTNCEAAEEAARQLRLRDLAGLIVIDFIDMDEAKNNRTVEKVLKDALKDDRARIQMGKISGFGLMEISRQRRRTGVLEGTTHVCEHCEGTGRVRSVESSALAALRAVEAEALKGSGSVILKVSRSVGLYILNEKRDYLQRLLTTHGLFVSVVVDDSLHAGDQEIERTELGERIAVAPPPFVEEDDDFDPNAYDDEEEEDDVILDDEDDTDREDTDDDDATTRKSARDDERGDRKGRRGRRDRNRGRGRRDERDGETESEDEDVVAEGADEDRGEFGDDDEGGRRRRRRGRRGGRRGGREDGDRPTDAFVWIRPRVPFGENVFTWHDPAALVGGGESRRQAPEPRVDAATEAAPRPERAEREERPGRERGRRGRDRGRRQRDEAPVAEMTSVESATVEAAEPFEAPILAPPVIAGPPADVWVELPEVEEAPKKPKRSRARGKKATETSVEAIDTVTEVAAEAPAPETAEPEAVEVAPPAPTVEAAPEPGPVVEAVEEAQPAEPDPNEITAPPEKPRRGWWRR
UniProt A0A0H3CG88: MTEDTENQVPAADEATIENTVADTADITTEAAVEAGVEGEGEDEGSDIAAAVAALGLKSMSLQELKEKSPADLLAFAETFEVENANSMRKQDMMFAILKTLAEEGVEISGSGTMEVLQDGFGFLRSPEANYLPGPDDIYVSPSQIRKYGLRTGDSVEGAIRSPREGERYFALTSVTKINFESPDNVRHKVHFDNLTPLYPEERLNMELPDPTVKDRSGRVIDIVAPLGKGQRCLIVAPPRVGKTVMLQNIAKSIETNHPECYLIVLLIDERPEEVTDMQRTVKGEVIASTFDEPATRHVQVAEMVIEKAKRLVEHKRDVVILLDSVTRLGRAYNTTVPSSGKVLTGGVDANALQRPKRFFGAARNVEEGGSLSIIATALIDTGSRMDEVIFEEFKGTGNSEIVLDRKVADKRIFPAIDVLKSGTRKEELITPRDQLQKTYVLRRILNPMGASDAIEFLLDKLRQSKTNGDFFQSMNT

In the assay the target is FLAG-tagged RNase E (Caulobacter crescentus NA1000) (UniProt Q9A749). Description: co-IP; FLAG-RNase E degradosomes isolated on anti-FLAG gel from NA1000 or ΔrhlB cells grown at 30°C or 15°C; Rho detected by immunoblot with anti-Rho serum.

Results are given in words; binding and its absence hold for the method and conditions named. Binding seen in cells or lysates may run through a third protein. A result given as binding can be weak or reduced; the word gives no strength.

In the case of “transcription terminator Rho (CCNA_03876) (from UniProt A0A0H3CG88) (enzyme)”, the binding result is recorded as “binds”.
